# Reference: US20220411536A1
# Amino acid sequences for entries named in this document (tags omitted). Residues count along the entry.
# UniProt Q5VWK5, residues 24-355: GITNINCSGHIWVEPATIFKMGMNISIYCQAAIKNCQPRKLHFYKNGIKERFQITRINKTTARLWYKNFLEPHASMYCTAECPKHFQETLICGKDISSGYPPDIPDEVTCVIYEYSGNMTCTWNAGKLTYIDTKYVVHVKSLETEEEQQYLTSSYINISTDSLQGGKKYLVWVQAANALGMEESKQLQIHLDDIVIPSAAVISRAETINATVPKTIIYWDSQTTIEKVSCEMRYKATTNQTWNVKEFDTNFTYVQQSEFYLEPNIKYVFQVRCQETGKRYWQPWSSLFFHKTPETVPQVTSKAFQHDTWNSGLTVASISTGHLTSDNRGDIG
# These are yes or no findings as the source states them, for the method shown. Some entries that bind do so weakly or less than the wild type.
# Target: recombinant human IL-23R (custom-made by Trenzyme) (human) (UniProt Q5VWK5)
# Test: SPR
row,binding,Binder
1,binds,PRO1546 (multispecific antibody) chain 1: DIQMTQSPSSLSASVGDRVTITCQASENIYSFLAWYQQKPGKAPKLLIYSASKLAAGVPSRFSGSGSGTDFTLTISSLQPEDFATYYCQQTNRYSNPDIYNVFGTGTKVTVLGGGGGSGGGGSGGGGSGGGGSEVQLVESGGGLVQPGGSLRLSCAASGIDFNSNYYMCWVRQAPGKGLEWIGCIYVGSHVNTYYANWAKGRFTISRDNSKNTVYLQMNSLRAEDTAVYYCATSGSSVLYFKFWGQGTLVTVSSGGGGSGGGGSDVVMTQSPSSLSASVGDRVTITCQASQIISSRSAWYQQKPGQPPKLLIYQASKLASGVPSRFSGSGSGTDFTLTISSLQPEDFATYYCQCTYIDSNFGAFGCGTKLTVLGGGSGGSDIQMTQSPSSLSASVGDRVTITCQSSQSVFSNNYLAWFQQKPGQSPKRLIYSASTLASGVPSRFSGSGSGTDFTLTISSLQPEDFATYYCLGSYACSSADCYVFGTGTKVTVLG chain 2: DIQMTQSPSSLSASVGDRVTITCQASQSINDYLAWYQQKPGKAPKLLIYKASTLASGVPSRFSGSGSGTDFTLTISSLQPEDFATYYCQAAYIITDIDNVFGTGTKVTVLGGGGGSGGGGSGGGGSGGGGSQVQLQESGPGLVKPSETLSLTCKVSGFSFSSGYDMCWIRQPPGKGLEWIGCVVAGSVDITYYASWAKGRVTISVDSSKNQFSLKLSSVTAADTAVYYCARKDAYSDAFNLWGQGTLVTVSSGGGGSGGGGSEVQLVESGGGLVQPGGSLRLSCAASGFSLSSYDMSWVRQAPGKGLAWIGASYASGPTYYASWAKGRFTISRDNSKNTVYLQMNSLRAEDTATYFCARGGWTGTSHSNIWGQGTLVTVSSGGGSGGGSEVQLVESGGGLVQPGGSLRLSCAASGFSFSSSYWICWVRQAPGKCLEWVGCVFTGDGTTYYASWAKGRFTISRDNSKNTVYLQMNSLRAEDTATYFCARPVSVYYYGMDLWGQGTLVTVSS
2,binds,PRO1545 (multispecific antibody) chain 1: DIQMTQSPSSLSASVGDRVTITCQASQSINDYLAWYQQKPGKAPKLLIYKASTLASGVPSRFSGSGSGTDFTLTISSLQPEDFATYYCQAAYIITDIDNVFGTGTKVTVLGGGGGSGGGGSGGGGSGGGGSQVQLQESGPGLVKPSETLSLTCKVSGFSFSSGYDMCWIRQPPGKGLEWIGCVVAGSVDITYYASWAKGRVTISVDSSKNQFSLKLSSVTAADTAVYYCARKDAYSDAFNLWGQGTLVTVSSGGGGSGGGGSDVVMTQSPSSLSASVGDRVTITCQASQIISSRSAWYQQKPGQPPKLLIYQASKLASGVPSRFSGSGSGTDFTLTISSLQPEDFATYYCQCTYIDSNFGAFGCGTKLTVLGGGSGGSDIQMTQSPSSLSASVGDRVTITCQSSQSVFSNNYLAWFQQKPGQSPKRLIYSASTLASGVPSRFSGSGSGTDFTLTISSLQPEDFATYYCLGSYACSSADCYVFGTGTKVTVLG chain 2: DIQMTQSPSSLSASVGDRVTITCQASENIYSFLAWYQQKPGKAPKLLIYSASKLAAGVPSRFSGSGSGTDFTLTISSLQPEDFATYYCQQTNRYSNPDIYNVFGTGTKVTVLGGGGGSGGGGSGGGGSGGGGSEVQLVESGGGLVQPGGSLRLSCAASGIDFNSNYYMCWVRQAPGKGLEWIGCIYVGSHVNTYYANWAKGRFTISRDNSKNTVYLQMNSLRAEDTAVYYCATSGSSVLYFKFWGQGTLVTVSSGGGGSGGGGSEVQLVESGGGLVQPGGSLRLSCAASGFSLSSYDMSWVRQAPGKGLAWIGASYASGPTYYASWAKGRFTISRDNSKNTVYLQMNSLRAEDTATYFCARGGWTGTSHSNIWGQGTLVTVSSGGGSGGGSEVQLVESGGGLVQPGGSLRLSCAASGFSFSSSYWICWVRQAPGKCLEWVGCVFTGDGTTYYASWAKGRFTISRDNSKNTVYLQMNSLRAEDTATYFCARPVSVYYYGMDLWGQGTLVTVSS
